{"source": "patent US6294333", "about": "“Fluorescent intensity assay for protein or peptide binding to nucleic acids” (Ingeneus Corp.)", "target": "T1, Oct-1 (Homo sapiens) (UniProt P14859)", "T1 sequence (looked up, limits assumed)": "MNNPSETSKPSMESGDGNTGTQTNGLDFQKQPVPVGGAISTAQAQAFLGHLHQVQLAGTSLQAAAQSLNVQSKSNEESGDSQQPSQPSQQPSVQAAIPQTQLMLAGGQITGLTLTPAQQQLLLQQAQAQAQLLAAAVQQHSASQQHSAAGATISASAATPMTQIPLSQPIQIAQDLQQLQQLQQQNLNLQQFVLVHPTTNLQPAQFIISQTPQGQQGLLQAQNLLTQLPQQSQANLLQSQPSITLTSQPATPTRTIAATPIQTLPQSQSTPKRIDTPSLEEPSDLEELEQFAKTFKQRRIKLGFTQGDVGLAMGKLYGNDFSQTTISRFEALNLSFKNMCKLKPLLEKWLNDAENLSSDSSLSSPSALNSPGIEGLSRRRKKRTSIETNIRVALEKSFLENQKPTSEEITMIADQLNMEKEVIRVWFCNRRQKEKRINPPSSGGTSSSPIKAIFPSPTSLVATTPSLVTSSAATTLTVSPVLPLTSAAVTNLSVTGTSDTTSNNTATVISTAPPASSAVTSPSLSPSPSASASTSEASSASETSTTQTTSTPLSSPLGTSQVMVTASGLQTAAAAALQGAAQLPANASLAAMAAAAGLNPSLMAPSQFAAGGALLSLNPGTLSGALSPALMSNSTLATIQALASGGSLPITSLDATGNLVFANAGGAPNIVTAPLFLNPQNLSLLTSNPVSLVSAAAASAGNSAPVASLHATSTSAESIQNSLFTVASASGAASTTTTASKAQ", "experiment": "binding assay", "details": "fluorescence quenching; intensity increased; protein in an extract; protein details: HeLa nuclear extract, Promega; label: 5'-fluorescein both strands; variant of JD49F/50F", "note": "At least one result comes from cells or an extract, where the contact may be indirect. Negatives hold for the conditions tested. Protein sequences can lack the tags named with them."}
{"sequence": "GAGTCGGCACCTCATGTG (double strand) [JD51F/52F]", "values": [{"measurement": "binding result", "result": "no binding"}]}
